Laboratory results as given in paper PMC12266115.
Results are given in words; binding and its absence hold for the method and conditions named. For some of these results: Binding can be weak; no strength is given. Sequences can lack the tags named with a protein.

T1: EDS1^405-554, fragment of the EP domain, Gal4 BD fusion (A. thaliana) (UniProt Q9SU72)
T1 sequence: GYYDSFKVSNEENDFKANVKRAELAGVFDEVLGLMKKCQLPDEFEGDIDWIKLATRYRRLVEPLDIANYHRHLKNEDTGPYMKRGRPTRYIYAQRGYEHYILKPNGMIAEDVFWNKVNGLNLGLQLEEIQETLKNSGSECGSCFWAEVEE

B1: SAG101 full length, Gal4 AD fusion (protein, UniProt Q4F883 1-537)
chain: MESSSSLKGSALGKLVVTSGLLHSSWSKILEIHNPPYSNHDPGLQVSKKKKDSGLEFQIHREEKFTLVVFSAPPICRSSSSDSTLLHVKDKENPFPFLCSENNPSFSLHTPAFNLFTSASTSLTYLKSELLQTLKSEKPVIITGAALGGSVASLYTLWLLETIEPTLKRPLCITFGSPLIGDASLQQILENSVRNSCFLHVVSAQTRIKMDFFKPFGTFLICFDSGCVCIEDHVAVTELLNGVHDSGLVDYSQVLNRLDQSMLSLADSRLIPEDVIKGIEKRAEMKNLRFDMMFKKLNDMKISMAYIEWYKKKCKEVKIGYYDRFKTQLAFPSKEFDINIKNHHKSELNRFWKSVVEEVERRPQSDASILKRRFLFSGNNYRRMIEPLDIAEYYLEGRKEYRTTGRSHHYVMLEKWFGMESILIEKERCKKRDLSDLLTFDSCFWAEVEDSLIVINQLNTTVGMRDDVREVLTRKLVEFEGYVWEIITKREVSPEIFLEESSFMKWWKEYKKIKGFNSSYLTEFMNTRKYESYGKSQ
B2: EDS1 full length, Gal4 AD fusion (protein, UniProt Q9SU72 1-623)
chain: MAFEALTGINGDLITRSWSASKQAYLTERYHKEEAGAVVIFAFQPSFSEKDFFDPDNKSSFGEIKLNRVQFPCMRKIGKGDVATVNEAFLKNLEAIIDPRTSFQASVEMAVRSRKQIVFTGHSSGGATAILATVWYLEKYFIRNPNVYLEPRCVTFGAPLVGDSIFSHALGREKWSRFFVNFVSRFDIVPRIMLARKASVEETLPHVLAQLDPRKSSVQESEQRITEFYTRVMRDTSTVANQAVCELTGSAEAFLETLSSFLELSPYRPAGTFVFSTEKRLVAVNNSDAILQMLFYTSQASDEQEWSLIPFRSIRDHHSYEELVQSMGKKLFNHLDGENSIESTLNDLGVSTRGRQYVQAALEEEKKRVENQKKIIQVIEQERFLKKLAWIEDEYKPKCQAHKNGYYDSFKVSNEENDFKANVKRAELAGVFDEVLGLMKKCQLPDEFEGDIDWIKLATRYRRLVEPLDIANYHRHLKNEDTGPYMKRGRPTRYIYAQRGYEHYILKPNGMIAEDVFWNKVNGLNLGLQLEEIQETLKNSGSECGSCFWAEVEELKGKPYEEVEVRVKTLEGMLGEWITDGEVDDKEIFLEGSTFRKWWITLPKNHKSHSPLRDYMMDEITDT
B3: PAD4 full length, Gal4 AD fusion (protein, UniProt Q9S745 1-541)
chain: MDDCRFETSELQASVMISTPLFTDSWSSCNTANCNGSIKIHDIAGITYVAIPAVSMIQLGNLVGLPVTGDVLFPGLSSDEPLPMVDAAILKLFLQLKIKEGLELELLGKKLVVITGHSTGGALAAFTALWLLSQSSPPSFRVFCITFGSPLLGNQSLSTSISRSRLAHNFCHVVSIHDLVPRSSNEQFWPFGTYLFCSDKGGVCLDNAGSVRLMFNILNTTATQNTEEHQRYGHYVFTLSHMFLKSRSFLGGSIPDNSYQAGVALAVEALGFSNDDTSGVLVKECIETATRIVRAPILRSAELANELASVLPARLEIQWYKDRCDASEEQLGYYDFFKRYSLKRDFKVNMSRIRLAKFWDTVIKMVETNELPFDFHLGKKWIYASQFYQLLAEPLDIANFYKNRDIKTGGHYLEGNRPKRYEVIDKWQKGVKVPEECVRSRYASTTQDTCFWAKLEQAKEWLDEARKESSDPQRRSLLREKIVPFESYANTLVTKKEVSLDVKAKNSSYSVWEANLKEFKCKMGYENEIEMVVDESDAMET

Tests used:
Experiment in all cases: two-hybrid; S. cerevisiae AH109, pDEST-GBKT7 (BD) and pDEST-GADT7 (AD) fusions; growth on SD-LWH with 5 mM 3-amino-1,2,4-triazole and on SD-LWHA, 28°C, 5 days
[1] = target: T1, EDS1^405-554, fragment of the EP domain, Gal4 BD fusion (A. thaliana)
[2] = target: CathB6 mature domain (Arg61-Asn338), Gal4 BD fusion (M. persicae)
[3] = target: CathB9 mature domain (Glu61-Thr338), Gal4 BD fusion (M. persicae)
[4] = target: CathB3 mature domain (Lys61-Asn340), Gal4 BD fusion (M. persicae)

Row | Molecule | binding [1] | binding [2] | binding [3] | binding [4]
1 | CathB6 mature domain, Gal4 AD fusion (M. persicae) (domain or fragment) | binds | – | – | –
2 | B1 | – | no binding | no binding | no binding
3 | B2 | – | binds | no binding | binds
4 | B3 | – | no binding | no binding | no binding
